From publication doi:10.1101/766147
No constants are given. Whether binding was seen depends on the method and setting. For some of these results: Binding seen in cells or lysates may run through a third protein. Some entries that bind do so weakly or less than the wild type. Where a sequence is shown, tags or fusion partners need not be part of it. Each block holds one molecule with its values, some of them ahead of it.

By UniProt entry, the sequences of proteins in these tests, tags left out.
UniProt Q8IYW5: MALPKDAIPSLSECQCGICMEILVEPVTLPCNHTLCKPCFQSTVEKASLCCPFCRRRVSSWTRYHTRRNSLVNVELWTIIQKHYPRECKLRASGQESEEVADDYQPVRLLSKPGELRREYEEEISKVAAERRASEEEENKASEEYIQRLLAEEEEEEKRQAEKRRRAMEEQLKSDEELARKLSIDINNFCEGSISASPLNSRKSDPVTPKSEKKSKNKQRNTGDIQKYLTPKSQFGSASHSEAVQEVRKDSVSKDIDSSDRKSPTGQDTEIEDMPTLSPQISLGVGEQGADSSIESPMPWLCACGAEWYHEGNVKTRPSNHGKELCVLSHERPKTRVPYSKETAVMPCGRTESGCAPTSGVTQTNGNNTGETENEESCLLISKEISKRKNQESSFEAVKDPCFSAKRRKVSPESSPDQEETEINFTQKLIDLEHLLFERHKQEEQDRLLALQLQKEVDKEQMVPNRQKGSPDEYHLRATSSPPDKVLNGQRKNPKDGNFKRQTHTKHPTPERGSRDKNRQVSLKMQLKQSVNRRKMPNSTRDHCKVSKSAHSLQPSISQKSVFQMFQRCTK

Columns and labels:
GFP-SET8 = molecular target: T1, GFP-SET8 (UniProt Q9NQR1); test: co-IP
T1 sequence: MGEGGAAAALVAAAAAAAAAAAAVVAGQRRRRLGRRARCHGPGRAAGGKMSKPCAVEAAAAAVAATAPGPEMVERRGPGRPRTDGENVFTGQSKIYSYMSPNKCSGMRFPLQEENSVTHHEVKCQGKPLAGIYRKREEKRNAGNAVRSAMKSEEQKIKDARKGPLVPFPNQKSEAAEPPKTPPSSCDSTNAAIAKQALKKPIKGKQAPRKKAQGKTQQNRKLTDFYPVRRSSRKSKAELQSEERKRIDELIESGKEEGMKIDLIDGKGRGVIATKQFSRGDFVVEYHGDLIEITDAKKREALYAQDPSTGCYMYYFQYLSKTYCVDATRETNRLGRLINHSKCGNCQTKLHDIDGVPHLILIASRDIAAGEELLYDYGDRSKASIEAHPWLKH

3×Flag-SET8 = molecular target: T2, 3×Flag-SET8 (UniProt Q9NQR1); test: co-IP
T2 sequence: T1 sequence

GFP-RNF168 = GFP-RNF168 (UniProt Q8IYW5); test: co-IP
LacR-mCherry-RNF168 = LacR-mCherry-RNF168 (UniProt Q8IYW5); test: LacO/LacR chromatin tethering with confocal microscopy

B1: 3×Flag-SET8 (protein, UniProt Q9NQR1 1-393)
chain: T1 sequence
- binding (GFP-RNF168): binds

B2: GFP-SET8 (protein, UniProt Q9NQR1 1-393)
chain: T1 sequence
- binding (LacR-mCherry-RNF168): binds

Results, then the molecule that gave them:

- binding (GFP-SET8): binds
Molecule: 3×Flag-RNF168 (from UniProt Q8IYW5 1-571)

- binding (3×Flag-SET8): binds
Molecule: GFP-RNF168 (from UniProt Q8IYW5 1-571)
